From PubChem BioAssay record AID1159506 (NCATS, 2015).

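Genome-wide siRNA knockdown in TC32 Ewing sarcoma cells, comparing luciferase light from an NR0B1-promoter reporter with a CMV-promoter reporter 48 hours after transfection.
Each siRNA was applied at 20 nM.
A z-score of the log NR0B1-over-CMV signal, less the median of siRNAs with the same seed; more negative means a stronger specific loss of the NR0B1 reporter.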

The strongest results of the screen are mostly left out here.
Sequences are the guide (antisense) strand, without overhang.

| strand | target gene | seed-corrected z-score |
|---|---|---|
| `AUAGAUAGAAGAUAAUCCG` | SLC6A14 | 0.3139 |
| `UUAGCGAUUACCACAAUAU` | NNAT | 0.6227 |
| `UCGUUGGACAGUACAUCCC` | PPM1M | -0.214 |
| `UCGGUAGUAAGAGUACAGG` | TRPC7 | -0.2837 |
| `UCCGAGUCCAUGGUAACAG` | ASIC1 | 0.01799 |
| `UCACGUAUGAAAAUCUUGG` | CEP128 | 0.4663 |
| `UUGUUCACUGCUGCAUUGC` | C5orf56 | -0.5021 |
| `UUCACUUCUUUUUCGAUUC` | GIPC2 | 0.3422 |
| `UCCAUAACCAGUUUGGGUG` | RTCB | 0.2015 |
| `AUAGUAGUAAUCAUCAGAG` | HMGXB4 | 1.398 |
| `UAAUAGUGCACAAUCCUCG` | CCDC134 | -0.07752 |
| `AAAGGAGCAAACAUUUCCG` | ZNF511 | 2.122 |
| `AUAGCUAAAGCCCGGGUCC` | DVL1 | 0.1305 |
| `UCUGAGACACGGACGAUAC` | SLC26A8 | -0.7095 |
| `UUAGUUCAAAUAUUGAGAG` | CCDC169 | 0.9329 |
| `UAUGGAACGGGUAGGAUGC` | MSX2 | 0.656 |
| `UCUCUUCCCAGUACUGCUC` | CARD14 | 1.033 |
| `UCUGCAGAUAGACGAGUUC` | WNT11 | 1.003 |
| `UCCAUGACUAGCUCAAACC` | CSAD | 0.2893 |
| `UGUCUUCACAUACCUCGUC` | RING1 | -0.4889 |
| `UAAGUACCAACGGCCUCUG` | STAT4 | 0.8833 |
| `UUACUGUCCACUGUGAAAG` | CNTF | -1.39 |
| `UUUCGAUUUUGCAAAAUGG` | TSNAXIP1 | 0.2692 |
| `UCUUAUAUUCGGUAAAUUG` | TNFSF4 | 1.716 |
| `AAUGGUUAGAGUCAUACAG` | ZNF846 | -0.4434 |
| `UACUCGUUGAUGUACUCGU` | ABCA2 | 0.1042 |
| `UCUACCACCUCGAUAAUCU` | AAMP | 0.2219 |
| `UCUGGGUGGAUGUACAUGC` | TBX2 | -0.1218 |
| `UAGCAGAAGAGAUGUACCC` | KRT36 | 0.7548 |
| `UUCAGCUGCACAUACAUGG` | OR6N1 | -1.33 |
| `UUUGUGACGACAACAGCCU` | PRPS2 | -0.9299 |
| `UGAGUGCAAUGCACACGGC` | SYS1 | 0.9278 |
| `UAUUCGAACAAUAUCACCC` | ATP11B | 0.2318 |
| `UUUGAGGAUAGGGUUUCGC` | ARHGEF11 | -0.08935 |
| `AUAGGUCCCACCAUCUGCC` | EXOSC4 | 0.6642 |
| `UUCGUGGUUCCAUCAAGCC` | SMARCA4 | -0.3073 |
| `UGUCUCUCAAGACCUUGCG` | HIST2H4A | 0.1706 |
| `UACUUGCUGGGAUAGUUGG` | NETO1 | -0.7967 |
| `UCCUCUUAAAAUUCUGCCC` | MRI1 | 0.04415 |
| `UUCUCAUGCUCACUGGACC` | PDZK1IP1 | 0.1244 |
| `UCCUGUAUUGUCAGCAUUG` | RPL23P7 | -0.753 |
| `UUUUCUCAGAGGGAUUAGC` | MS4A1 | -0.4697 |
| `UUGACGUAACUGUAGAAUC` | PHLPP2 | 0.6905 |
| `UAAGGUUCAGCAUAGGGAU` | OR5M8 | -1.137 |
| `UUAGUUGCUAUCGCAGAAG` | SLC12A1 | -0.5208 |
| `UCAAAGAUCAAGUCCUUGC` | DRC7 | 0.745 |

6 of the entries, repeated:

With UUCGUGGUUCCAUCAAGCC against SMARCA4 the assay gave seed-corrected z-score -0.3073.
With UUGUUCACUGCUGCAUUGC against C5orf56 the assay gave seed-corrected z-score -0.5021.
With UUCAGCUGCACAUACAUGG against OR6N1 the assay gave seed-corrected z-score -1.33.
With UCCUCUUAAAAUUCUGCCC against MRI1 the assay gave seed-corrected z-score 0.04415.
With UCGUUGGACAGUACAUCCC against PPM1M the assay gave seed-corrected z-score -0.214.
With UCUGAGACACGGACGAUAC against SLC26A8 the assay gave seed-corrected z-score -0.7095.